For 1 molecule, binding results are on record in paper PMC10705702.

These are yes or no findings as the source states them, for the method shown. In cells and extracts the contact can be indirect. These calls come from enrichment with a bait or labelling near it, and not all partners need be listed.

The target in the assay is T1, Iroquois-Homeobox 4 (IRX4) (human (endogenous in LNCaP)) (UniProt P78413).
T1 sequence: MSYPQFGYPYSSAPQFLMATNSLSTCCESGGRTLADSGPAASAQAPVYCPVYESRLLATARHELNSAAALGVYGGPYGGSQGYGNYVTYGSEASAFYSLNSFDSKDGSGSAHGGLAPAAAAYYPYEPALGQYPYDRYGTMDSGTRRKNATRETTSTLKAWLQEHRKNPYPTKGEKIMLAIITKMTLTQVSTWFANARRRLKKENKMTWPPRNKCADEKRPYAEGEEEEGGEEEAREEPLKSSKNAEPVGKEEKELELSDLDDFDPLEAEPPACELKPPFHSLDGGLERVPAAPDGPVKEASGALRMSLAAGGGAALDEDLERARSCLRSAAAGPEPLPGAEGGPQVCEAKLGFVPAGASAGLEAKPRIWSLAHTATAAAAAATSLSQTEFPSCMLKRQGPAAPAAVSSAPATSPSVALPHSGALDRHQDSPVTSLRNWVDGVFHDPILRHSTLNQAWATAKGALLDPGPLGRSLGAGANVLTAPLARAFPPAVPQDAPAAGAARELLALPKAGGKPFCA
Description: affinity purification with mass spectrometry; IP with anti-IRX4 antibody (Abcam ab123542) and protein G magnetic beads from LNCaP nuclear enriched lysate, 4 °C overnight, IgG control; LC-MS/MS; proteins identified in at least two replicates, cut-off intensity > E+07.

B1: FOXA1, also known as hepatocyte nuclear factor 3α (HNF-3α) (protein, UniProt P55317 1-472)
chain: MLGTVKMEGHETSDWNSYYADTQEAYSSVPVSNMNSGLGSMNSMNTYMTMNTMTTSGNMTPASFNMSYANPGLGAGLSPGAVAGMPGGSAGAMNSMTAAGVTAMGTALSPSGMGAMGAQQAASMNGLGPYAAAMNPCMSPMAYAPSNLGRSRAGGGGDAKTFKRSYPHAKPPYSYISLITMAIQQAPSKMLTLSEIYQWIMDLFPYYRQNQQRWQNSIRHSLSFNDCFVKVARSPDKPGKGSYWTLHPDSGNMFENGCYLRRQKRFKCEKQPGAGGGGGSGSGGSGAKGGPESRKDPSGASNPSADSPLHRGVHGKTGQLEGAPAPGPAASPQTLDHSGATATGGASELKTPASSTAPPISSGPGALASVPASHPAHGLAPHESQLHLKGDPHYSFNHPFSINNLMSSSEQQHKLDFKAYEQALQYSPYGSTLPASLPLGSASVTTRSPIEPSALEPAYYQGVYSRPVLNTS
With B1, the binding result was “binds”.
